Measured values reported in PubChem BioAssay AID624291 (National Center for Advancing Translational Sciences (NCATS), 2012).
Among all 350,000 compounds or so, about 220 (0.063%) were called active. Inconclusive means that the source gave no clear call. Such entries were picked first, then a sample of the others. The call rests on the fitted dose curve; in most records, active means well fitted activation curve with a large enough effect; inconclusive means small, poorly fitted or top-dose-only effect; inactive means no such curve, though single readings can be large or run the other way. A potency beside an inconclusive call is a rough fit, not a confirmed value.

Test: qHTS for Activators of Integrin-Mediated Alleviation for Muscular Dystrophy; further: nearly all actives have a fitted effect of over 60% in size;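 on activation: 100% = response of the positive control SU9516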
Conditions: alpha7betagal myoblasts, beta-gal FDG fluorescence, 48 h; activation: at 38.3 µM (top of the series)
Procedure, shortened: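 Alpha7betagal+/- myoblasts (passage 13) were plated 16-24 hr, then exposed to compounds (1:260 dilution of DMSO stock) for 48 hours at 37C. After MPER lysis, β-galactosidase reporter activity was read as FDG fluorescence (ex 480/em 540) after 30 minutes.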
Potency means the concentration at half of the fitted maximal effect.

Potency, inactive:
O=C(Nc1ccc(F)cc1)c1nc[nH]c1C(=O)Nc1ccc([N+](=O)[O-])cc1
CC(=O)NC1=NN(C(C)=O)C(C)(c2ccccc2)S1 (stereo unspecified)
COc1ccc(C(=O)CC(Nc2ccc([N+](=O)[O-])cc2)c2ccc(Cl)cc2)cc1 (stereo unspecified)
Cc1ccccc1C(=O)NCC(=O)NNC(=S)NC(=O)c1ccccc1C
CC1C=CC(C)C(C(=O)O)C1C(=O)O (stereo unspecified)
Cc1[nH]n(-c2ccccc2)c(=O)c1C(c1ccc(O)c([N+](=O)[O-])c1)c1c(C)[nH]n(-c2ccccc2)c1=O
O=C(Nc1ccc(Oc2nnc(-c3ccccc3)c3ccccc23)cc1)c1ccccc1
CCN(CC)CCCOc1ccc(C)cc1Br
COc1cc(Cl)ccc1NC(=S)N(CCCN1CCOCC1)Cc1cn(C)c2ccccc12
COc1ccc(-c2csc3nc[nH]c(=O)c23)cc1OC
Cc1cccc(NS(=O)(=O)c2ccc(C)c(NS(=O)(=O)c3cccs3)c2)c1
O=C(Cc1ccccc1)Nc1ccc2oc(-c3ccncc3)nc2c1
COc1ccccc1NC(=O)c1ccc(S(=O)(=O)N(C)c2ccccc2)cc1
O=C1NC(=O)C(=Cc2ccco2)S1
CC(=O)Nc1ccc(NC(=O)C(C)OC(=O)c2cccc(S(=O)(=O)N3CCCCC3)c2)cc1 (stereo unspecified)
OCCC1CN(Cc2cc3c(cc2Cl)OCO3)CCN1C1CCCCC1 (stereo unspecified)
O=C(Oc1ccc(=O)n(-c2ccccc2)n1)c1ccc(Cl)cc1
CCCCNS(=O)(=O)c1ccc2nc(-c3cccnc3)cc(C(=O)NC(C)CC)c2c1 (stereo unspecified)
COC(=O)c1c(C(=O)OC)c(-c2ccc(Br)cc2)n2c1CS(=O)C2 (stereo unspecified)
O/N=C/c1ccc(OCc2ccccc2)c(Cl)c1
CCC(C)(C)C1CCc2c(sc(NC(=O)c3ccccc3C(=O)O)c2C#N)C1 (stereo unspecified)
Fc1ccc(CSc2nnc3ccccn23)c(Cl)c1
Cc1cc(O)ccc1Nc1nc(-c2cccnc2)cs1
O=C(COC(=O)C1CCC1)NCc1ccc(Cl)cc1Cl

Potency, inconclusive:
CSc1ncccc1C(=O)OCC(=O)c1ccccc1 12.6 µM [activator, partial curve, poor fit]
CCOC(=O)C1(CCOc2ccccc2)CCN(Cc2cccc(-n3cccn3)c2)CC1 3.55 µM [activator, single point]
CC(=O)NC1=NN(C(C)=O)C(C)(CCS(=O)(=O)c2ccc(Br)cc2)S1 (stereo unspecified) 10 µM [activator, partial curve, poor fit]
COC(=O)N/N=C/c1cccs1 5.01 µM [activator, single point]
Cc1ccccc1NC(=O)COC(=O)C1=COCCO1 3.16 µM [activator, single point]
CCCS(=O)(=O)c1csc(C(=O)OC)c1N 5.01 µM [activator, single point]
Cn1c(=O)c2c(nc(SCc3cccnc3)n2Cc2ccccc2)n(C)c1=O 28.2 µM [activator, single point]
CC1(C)Cc2c(cnn2-c2ccccc2)C(NC(=O)CCN2CCCC2=O)C1 (stereo unspecified) 0.501 µM [activator, full curve, poor fit]
CCOC(=O)c1cnc(N)nc1C(F)(F)F 10 µM [activator, single point]
Cn1c(/C=N/O)nc2ccccc21 5.01 µM [activator, single point]
CCN1CCN(c2nc(Nc3ccc(OC)cc3)nc(N)c2[N+](=O)[O-])CC1 5.01 µM [activator, single point]
O=c1[nH]cc(C(F)(F)F)cc1NS(=O)(=O)c1ccc([N+](=O)[O-])cc1 3.55 µM [activator, single point]
COc1cccc(COC(=O)Nc2ccccc2F)c1 12.6 µM [activator, single point]
CCCCn1c(N)c(N(CCC(C)C)C(=O)C2CC(=O)N(c3ccccc3OCC)C2)c(=O)[nH]c1=O (stereo unspecified) 1.12 µM [activator, partial curve, poor fit]
CCCOc1ccccc1NC(=O)Nc1ccccc1Cl 0.501 µM [activator, full curve, poor fit]
Cc1cc2nc(/N=C(\N)NC(=O)N3c4ccccc4Sc4ccccc43)nc(C)c2cc1C 2.82 µM [activator, full curve]
NC(=O)N/N=C/c1ccccc1OC(=O)c1ccccc1Br 2.82 µM [activator, full curve, poor fit]
NS(=O)(=O)c1ccc(CCNC(=O)CSc2nc3ccccc3c(=O)n2CCN2CCOCC2)cc1 2.82 µM [activator, single point]
Cc1cc([N+](=O)[O-])nn1Cc1ccc(C(=O)N/N=C/c2ccccc2)cc1 7.94 µM [activator, partial curve, poor fit]
CCn1ccnc1C(O)c1cccc(OC)c1 (stereo unspecified) 12.6 µM [activator, single point]
COc1ccc(/C(O)=C2/C(=O)C(=O)N(CCN(C)C)C2c2ccc(F)cc2)cc1Cl (stereo unspecified) 5.01 µM [activator, single point]
CCOc1ccc(C(C)NC(=O)Nc2ccc(F)cc2F)cc1 (stereo unspecified) 28.2 µM [activator, single point]
COc1ccc2[nH]c(O)c(N=NC(=O)Cc3cccs3)c2c1 28.2 µM [activator, single point]
COc1ccc(C2SCC(=O)N2c2ccccc2)cc1 (stereo unspecified) 3.55 µM [activator, full curve, poor fit]
CCOC(=O)C1=C(C)NC(C)=C(C(=O)OCC)C1/C=C/c1ccccc1 5.01 µM [activator, single point]
CC(C)C1N=C(c2ccc3c(c2)OCO3)CC(c2ccccc2O)N1 (stereo unspecified) 31.6 µM [activator, partial curve, poor fit]
CC(Sc1ncccn1)C(=O)NNC(=O)c1cccc(Cl)c1 (stereo unspecified) 3.55 µM [activator, single point]
CC(Sc1nnc2c(n1)[nH]c1ccccc12)C(=O)NC1CCCCC1 (stereo unspecified) 28.2 µM [activator, single point]
Cc1oc2ccc(OCc3c(F)cccc3Cl)cc2c1C(=O)O 28.2 µM [activator, single point]
Cn1c(=O)n(CCc2ccccc2)c2ccccc21 5.01 µM [activator, single point]
C[C@H](NC(=O)c1cc2c(cn1)[nH]c1ccccc12)C(=O)O 28.2 µM [activator, single point]
Cc1nnc(NC(=O)C2CC(=O)N(Cc3ccccc3)C2)s1 (stereo unspecified) 5.01 µM [activator, single point]
O=C(NCCCn1ccnc1)c1c(F)cccc1F 28.2 µM [activator, partial curve, poor fit]
CCOC(=O)Cn1c(=O)n(Cc2ccc(C)cc2)c(=O)c2cccnc21 0.501 µM [activator, full curve, poor fit]
Clc1ccccc1-c1nnc(-c2cccs2)o1 5.01 µM [activator, single point]
COc1ccc(CS(=O)(=O)CC(C)(O)c2ccccc2)cc1 (stereo unspecified) 12.6 µM [activator, partial curve, poor fit]
COc1ccc(CN(C)C(=O)C(CCSC)NS(=O)(=O)c2ccc3c(c2)OCCO3)c(OC)c1OC (stereo unspecified) 2.82 µM [activator, single point]
CCCCNS(=O)(=O)c1cc2c3c(c1)CCN3C(=O)CC2 2.24 µM [activator, full curve, poor fit]
C/C(=N\Nc1nc2ccccc2[nH]1)c1ccc2c(c1)OCO2 3.16 µM [activator, partial curve, poor fit]
COc1cccc2cc(C(=O)N3CCCCCCC3)c(=O)oc12 5.01 µM [activator, single point]
Cc1ccc(CNC(=O)C2CCC(=O)N(C3CCCC3)C2)c(F)c1F (stereo unspecified) 2 µM [activator, partial curve, poor fit]
CCN(CC)S(=O)(=O)c1ccc(-c2csc(C)n2)cc1 3.55 µM [activator, single point]
Cc1c(C(=O)C(=O)NCc2cccs2)c2ccccc2n1C 28.2 µM [activator, single point]
CC1CCCN(C(=O)Cn2nnc(-c3ccc(F)cc3)n2)C1 (stereo unspecified) 28.2 µM [activator, single point]
CN(C(=O)COC(=O)COc1ccc(N(C)S(=O)(=O)c2ccc(Cl)cc2)cc1)c1ccccc1 3.55 µM [activator, single point]
C[C@H](NC(=O)C1CC(=O)N(c2ccc3c(c2)OCO3)C1)C(=O)NCc1ccco1 (stereo partly specified) 2.24 µM [activator, partial curve, poor fit]

No new results follow: twelve of the compounds above.
Potency, inconclusive:
Cn1c(=O)n(CCc2ccccc2)c2ccccc21 5.01 µM [activator, single point]
C[C@H](NC(=O)c1cc2c(cn1)[nH]c1ccccc12)C(=O)O 28.2 µM [activator, single point]
Cc1nnc(NC(=O)C2CC(=O)N(Cc3ccccc3)C2)s1 (stereo unspecified) 5.01 µM [activator, single point]
O=C(NCCCn1ccnc1)c1c(F)cccc1F 28.2 µM [activator, partial curve, poor fit]
CCOC(=O)Cn1c(=O)n(Cc2ccc(C)cc2)c(=O)c2cccnc21 0.501 µM [activator, full curve, poor fit]
Clc1ccccc1-c1nnc(-c2cccs2)o1 5.01 µM [activator, single point]
COc1ccc(CS(=O)(=O)CC(C)(O)c2ccccc2)cc1 (stereo unspecified) 12.6 µM [activator, partial curve, poor fit]
COc1ccc(CN(C)C(=O)C(CCSC)NS(=O)(=O)c2ccc3c(c2)OCCO3)c(OC)c1OC (stereo unspecified) 2.82 µM [activator, single point]
CCCCNS(=O)(=O)c1cc2c3c(c1)CCN3C(=O)CC2 2.24 µM [activator, full curve, poor fit]
C/C(=N\Nc1nc2ccccc2[nH]1)c1ccc2c(c1)OCO2 3.16 µM [activator, partial curve, poor fit]
COc1cccc2cc(C(=O)N3CCCCCCC3)c(=O)oc12 5.01 µM [activator, single point]
Cc1ccc(CNC(=O)C2CCC(=O)N(C3CCCC3)C2)c(F)c1F (stereo unspecified) 2 µM [activator, partial curve, poor fit]

Next part.

activation, inconclusive:
O=S(=O)(NCCN1CCOCC1)c1ccc(-c2ccc(S(=O)(=O)NCCN3CCOCC3)cc2)cc1 -10.2% [activator]
